In article PMC5491494:
These are yes or no findings as the source states them, for the method shown. Binding seen in cells or lysates may run through a third protein. Some entries that bind do so weakly or less than the wild type.

Sequences of proteins named here, by UniProt entry; tags and fusion partners are left off.
UniProt Q921F2: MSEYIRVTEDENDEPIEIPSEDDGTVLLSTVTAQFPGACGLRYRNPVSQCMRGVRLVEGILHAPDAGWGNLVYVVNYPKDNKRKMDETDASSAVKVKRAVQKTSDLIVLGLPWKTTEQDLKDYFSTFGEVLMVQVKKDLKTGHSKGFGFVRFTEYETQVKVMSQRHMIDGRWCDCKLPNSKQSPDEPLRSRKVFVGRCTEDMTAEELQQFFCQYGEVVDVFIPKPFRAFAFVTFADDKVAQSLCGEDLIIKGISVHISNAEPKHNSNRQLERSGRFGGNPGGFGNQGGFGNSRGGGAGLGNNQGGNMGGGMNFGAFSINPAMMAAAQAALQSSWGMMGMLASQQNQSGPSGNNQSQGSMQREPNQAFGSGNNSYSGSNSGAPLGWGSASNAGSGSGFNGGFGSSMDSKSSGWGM

Target: TDP-43, endogenous mouse (mouse (endogenous in mouse brain slices)) (UniProt Q921F2)
Assay: cross-linking; in situ 1 mM DSG on minced human brain tissue (cerebellum, motor cortex) or mouse organotypic brain slices (control or 0.25 mM arsenite for 2 h), 37 °C, 30 min, quenched with 20 mM Tris; nucleo-cytoplasmic fractionation; immunoblot

## TDP-43, endogenous mouse (from UniProt Q921F2 1-414)
  binding: binds
